According to the supplement of paper PMC4371806:
Whole data set: some 2,300 compounds, median “plate-normalized OD600 growth (mean of duplicates)” near 0.29, cut for the lowest 2% near 0.22. This is one part of the list.

Test system: Escherichia coli BW25113
Assay: plate-normalized OD600 growth (mean of duplicates) (OD600 (normalized)); higher = more growth (less inhibition)
Details: 10 µM
Description: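 E. coli BW25113 in LB (100 µl, 96-well, no shaking) was exposed to 10 µM of each compound from a ~30,000-member library and grown at 37°C for 24 h or 15°C for 48 h, in duplicate. Growth was read as OD600 and the duplicate ODs were normalized across screening plates to correct plate-to-plate variation. Hits were >3σ below the mean OD600 at 15°C and <2σ below the mean at 37°C.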

| SMILES | plate-normalized OD600 growth (temperature: 15°C, 48 h) | plate-normalized OD600 growth (temperature: 37°C, 24 h) |
| --- | --- | --- |
| O=C1CC(n2nnn(-c3cccc(Cl)c3)c2=S)C2COC1O2 (stereo not drawn) | 0.232 | 0.605 |
| COc1cc(C=O)ccc1OCC(=O)O | 0.269 | 0.622 |
| CCOC(=N)c1ccc(F)c(Cl)c1 | 0.242 | 0.589 |
| NNC(=S)Nc1cc(C(F)(F)F)ccc1Cl | 0.248 | 0.607 |
| O=C(Nc1cc2cc[nH]c2cn1)c1ccccc1 | 0.237 | 0.623 |
| CCCCOc1ccc(N2C(=O)CC(NCc3ccc(S(N)(=O)=O)cc3)C2=O)cc1 (stereo not drawn) | 0.247 | 0.614 |
| COc1ccnc(Cl)c1C(=O)O | 0.223 | 0.57 |
| COc1cc(OC)c(C2C(C#N)=C(N)Oc3n[nH]c(-c4cccnc4)c32)cc1OC (stereo not drawn) | 0.244 | 0.612 |
| CCC1C(=O)C2=C(CC(C)(C)CC2=O)N(c2ccc(OC)cc2)C1c1ccccc1 (stereo not drawn) | 0.232 | 0.624 |
| Cc1cccc(N=Cc2ccc(OCc3ccccc3Cl)cc2)c1 | 0.252 | 0.606 |
| O=C(Nc1cc(C(F)(F)F)ccc1Cl)C(=O)Nc1cc(C(F)(F)F)ccc1Cl | 0.238 | 0.614 |
| COC(=O)c1cc([N+](=O)[O-])ccc1N1CCOCC1 | 0.236 | 0.626 |
| CCOC(=O)c1ccc(-c2ccc(/C=c3/sc4nc5c(C)cc(C)cc5n4c3=O)o2)cc1 | 0.234 | 0.596 |
| CCNC(=S)Nc1c(C)n(C)n(-c2ccccc2)c1=O | 0.256 | 0.666 |
| OC(C#CCN1CCCC1)c1ccccc1 (stereo not drawn) | 0.228 | 0.644 |
| N#CCc1nnc2n1CCCCC2 | 0.235 | 0.604 |
| Nc1cccc(C(=O)Nc2nccs2)c1 | 0.26 | 0.627 |
| COC(=O)c1ccc(S(=O)(=O)N2CCC(C(N)=O)CC2)n1C | 0.224 | 0.623 |
| O=C(OCCCC(F)(F)C(F)(F)F)c1ccccc1C(=O)n1nnc2ccccc21 | 0.218 | 0.618 |
| CCc1ccc(O)c(N=Cc2ccc(Cl)cc2Cl)c1 | 0.236 | 0.611 |
| O=C1Nc2ccccc2/C1=N/N1C(=O)N/C(=C\c2ccc(Cl)cc2Cl)C1=O | 0.255 | 0.634 |
| O=C(NCCCn1ccnc1)c1cc2nc(-c3ccco3)cc(C(F)(F)Cl)n2n1 | 0.243 | 0.621 |
| CCOC(=O)c1ccc(Oc2ncc(C(F)(F)F)cc2Cl)cc1 | 0.245 | 0.602 |
| COc1cc(/C=N\Nc2nncn2N)ccc1OC(C)=O | 0.241 | 0.607 |
| Cc1ccc2c(c1)/C(=C/c1ccccc1)c1cnc(/C=C/c3ccccc3)cc1-2 | 0.274 | 0.61 |

Exported field by field: part of the list above
COc1cc(OC)c(C2C(C#N)=C(N)Oc3n[nH]c(-c4cccnc4)c32)cc1OC (stereo not drawn)
  plate-normalized OD600 growth (temperature: 15°C, 48 h): 0.244
  plate-normalized OD600 growth (temperature: 37°C, 24 h): 0.612
CCOC(=O)c1ccc(Oc2ncc(C(F)(F)F)cc2Cl)cc1
  plate-normalized OD600 growth (temperature: 15°C, 48 h): 0.245
  plate-normalized OD600 growth (temperature: 37°C, 24 h): 0.602

(more compounds)

| SMILES | plate-normalized OD600 growth (temperature: 15°C, 48 h) | plate-normalized OD600 growth (temperature: 37°C, 24 h) |
| --- | --- | --- |
| O=C1CCc2cccc3cccc1c23 | 0.235 | 0.604 |
| O=C1CCCC2=C1C(c1cccnc1)Nc1ccc3ccccc3c12 (stereo not drawn) | 0.244 | 0.61 |
| c1cc2c(cc1N=C1SCC3CCCCN13)OCO2 (stereo not drawn) | 0.25 | 0.605 |
| NC(=S)N/N=C\c1ccccc1 | 0.239 | 0.608 |
| O=C1CNC(=S)N1CCc1ccccn1 | 0.25 | 0.659 |
| CC[C@@H]1[C@H]2CCCCN3[C@H]2[C@H](C[C@H]3[C@@H]2C[C@H](C)C(=O)O2)[C@@H]2[C@H]1OC(=O)[C@H]2C | 0.238 | 0.609 |
| Cc1ccc(NS(=O)(=O)c2ccc3[nH]c(=O)oc3c2)cc1 | 0.238 | 0.648 |
| O=[N+]([O-])c1ccc(-c2ncn[nH]2)cc1 | 0.209 | 0.607 |
| O=C1c2ccccc2C(=O)N1CN(CCSc1ccccc1)CN1C(=O)c2ccccc2C1=O | 0.241 | 0.596 |
| CCOc1cc(-c2c(C#N)c(N)nc(-c3ccccc3)c2CC)ccc1O | 0.251 | 0.649 |
| CCCCN1C(=O)C2C(CC)NC3(C(=O)N(Cc4ccccc4Cl)c4ccccc43)C2C1=O (stereo not drawn) | 0.241 | 0.623 |
| OC1c2cc(Br)cc(Br)c2OCC1(CN1CCCCC1)CN1CCCCC1 (stereo not drawn) | 0.26 | 0.647 |
| O=C(COC(=O)c1ccccc1-c1ccccc1)c1ccc(Br)cc1 | 0.249 | 0.608 |
| NNC(=O)Cn1c2ccccc2n2cc(-c3ccccc3)cc12 | 0.229 | 0.608 |
| O=C1c2ccccc2-c2nc3ncnn3c(-c3ccccc3Cl)c21 | 0.254 | 0.612 |
| CCN1CCN(CCC(=O)Nc2ccccc2)CC1 | 0.228 | 0.624 |
| CC(C)(C)S(=O)(=O)/C(C#N)=C/N1CCCCC1 | 0.267 | 0.62 |
| Nc1nc2ccc(N3CCOCC3)cc2s1 | 0.245 | 0.61 |
| COc1ccc([C@H]2[C@H](C(=O)C(C)(C)C)N3C=Cc4ccccc4[C@H]3C2(C#N)C#N)cc1 | 0.25 | 0.63 |
| OCCCc1cccc(C(F)(F)F)c1 | 0.242 | 0.586 |
| CC(=O)C1=C(Nc2ccc(C)cc2)CC(C)(O)C(C(C)=O)C1c1ccc(F)cc1 (stereo not drawn) | 0.208 | 0.598 |
| O=C(COc1ccccc1[N+](=O)[O-])Nc1ccccn1 | 0.24 | 0.619 |
| C=C(C)C(=O)Oc1c2ccccc2cc2ccccc12 | 0.269 | 0.62 |
| CC(=O)OC1CC[C@]2(C)C3=C(C(O)C[C@H]2C1(C)C)[C@]1(C)CC[C@H]([C@H](C)CCCC(C)C)[C@@]1(C)CC3=O (stereo partly drawn) | 0.265 | 0.589 |
